Laboratory results as given in PubChem BioAssay (Tox21).
Values joined by “and” are separate entries in the source; they are usually repeats but may differ in a detail not shown here. Equal values may be shown once. The shares of active, inactive and inconclusive entries below differ from those in the screen. Where the call is inconclusive, the potency comes from a doubtful curve fit. More than one record can exist for a structure, and the calls need not agree. Active and inactive are the calls of the source. Calls come from the whole dose curve.
% is set by controls: 0 for no effect and ±100 for the full control effect; potency is the fitted concentration of half-maximal effect.

Protein sequences, listed by entry. Tags and fused reporters are not part of them. Lines headed by an entry give the natural chain unless they say otherwise; changes in a name come on top.
UniProt P19793: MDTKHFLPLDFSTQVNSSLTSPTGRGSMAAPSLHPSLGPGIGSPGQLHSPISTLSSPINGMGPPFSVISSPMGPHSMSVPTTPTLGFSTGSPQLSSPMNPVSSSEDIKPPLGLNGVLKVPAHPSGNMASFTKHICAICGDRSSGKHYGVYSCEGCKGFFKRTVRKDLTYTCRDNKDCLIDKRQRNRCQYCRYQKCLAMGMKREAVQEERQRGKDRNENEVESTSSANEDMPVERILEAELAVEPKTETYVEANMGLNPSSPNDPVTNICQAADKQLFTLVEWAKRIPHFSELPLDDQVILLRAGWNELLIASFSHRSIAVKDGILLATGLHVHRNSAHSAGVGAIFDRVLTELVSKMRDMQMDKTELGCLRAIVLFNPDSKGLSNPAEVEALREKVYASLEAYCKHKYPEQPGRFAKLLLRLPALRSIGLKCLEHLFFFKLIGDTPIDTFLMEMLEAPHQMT

These compounds were tested against Retinoic acid receptor RXR-alpha (Homo sapiens) (UniProt P19793) (assay: qHTS assay to identify small molecule agonists of the RXR signaling pathway (AID 1159527; note: nearly all actives have a fitted effect of over 35% in size)). Details: HEK293T RXRa-UAS-bla, beta-lactamase ratio, 16 h; activation: at 76.8 µM (top of the series) unless noted.
How it was run: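 Beta-lactamase reporter assay, agonist format. Engineered HEK 293T line, charcoal-stripped FBS at 2%, overnight (16 hr) exposure, fluorescence at 460 and 530 nm after 405 nm excitation.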
In the case of `CCCCC(CC)COC(=O)c1ccc(N(C)C)cc1` (configuration not stated), the “activation” value is reported as inactive: -18.1%.
For `CN(C)CCCN1c2ccccc2CCc2ccc(Cl)cc21`, the Potency was inconclusive: 13.8 µM [inhibitor, partial curve, poor fit].
In the case of `COc1ccc(C(Cl)=C(c2ccc(OC)cc2)c2ccc(OC)cc2)cc1`, the Potency is reported as “inactive”.
`Nc1ccc(Nc2ccccc2)cc1` was tested, and the activation was inconclusive: -22.5%.
With `CCCCCCCO` the Potency was “inactive”.
`Cc1ccc(N)c(S(=O)(=O)O)c1` was tested, and the Potency was inconclusive: 39.4 µM [activator, partial curve, poor fit] and inactive.
`O=C(c1ccc(O)cc1O)c1ccc(O)cc1O` was tested, and the “activation” value was inactive: -3.79%.
With `Nc1nc(N)c2nc(-c3ccccc3)c(N)nc2n1` the Potency was active: 19 µM.
In the case of `Clc1ccc2c(c1)C(N1CCNCC1)=Nc1ccccc1O2`, the activation is reported as inconclusive: -0.732% [at 35.3 µM].
With `Cc1ccc(-c2cc(C(F)(F)F)nn2-c2ccc(S(N)(=O)=O)cc2)cc1` the Potency was inconclusive: 43.5 µM [cytotoxic, single point] and inconclusive: 309 nM [inhibitor, full curve] and inconclusive: 2.39 µM [inhibitor].
With `Nc1ccc2c(c1)C(=O)c1ccccc1C2=O` the Potency was inconclusive: 30.3 µM [activator, partial curve, poor fit].
For `CC/C(=C(\c1ccccc1)c1ccc(OCCN(C)C)cc1)c1ccccc1`, the Potency was inconclusive: 26.8 µM [cytotoxic, single point] [middle of 5 runs].
`C=C1C[C@H]2[C@@H]3C=C(C)C4=CC(=O)CC[C@]4(C)[C@H]3CC[C@]2(C)[C@@]1(OC(C)=O)C(C)=O` was tested, and the Potency was inconclusive: 31.6 µM [rising, single point].
`Clc1ccc(C(c2ccccc2Cl)C(Cl)Cl)cc1` (configuration not stated) was tested, and the Potency was inconclusive: 43.6 µM [cytotoxic, partial curve] and inconclusive: 5.35 µM [inhibitor, partial curve].
With `CC(C)(c1ccccc1)c1ccc(Nc2ccc(C(C)(C)c3ccccc3)cc2)cc1` the activation was inconclusive: -7.06% and inconclusive: -25.5%.
With `Oc1ccc(Cl)cc1Cc1cc(Cl)ccc1O` the Potency was inconclusive: 44.4 µM [inhibitor, partial curve, poor fit].
For `CC(C)(C)c1cccc(C(C)(C)C)c1O`, the Potency was inconclusive: 8.71 µM [activator, full curve] and the activation was inconclusive: -25.6%.
`COC(=O)c1c(Cl)c(Cl)c(C(=O)OC)c(Cl)c1Cl` was tested, and the Potency was active: 5.49 µM.
In the case of `CC1=C(/C=C/C(C)=C/C=C/C(C)=C/C(=O)Nc2ccc(O)cc2)C(C)(C)CCC1`, the Potency is reported as inconclusive: 63.2 µM and inconclusive: 13.4 µM [cytotoxic, partial curve].
In the case of `CCCNC(=O)NS(=O)(=O)c1ccc(Cl)cc1`, the Potency is reported as inconclusive: 19.4 µM [activator, partial curve, poor fit] and inconclusive: 27.5 µM [activator, partial curve] and inactive.
With `Cc1ccc(C(C)(C)C)c(O)c1` the activation was inconclusive: 10.8%.
